Results from PMC6117920.
These are yes or no findings as the source states them, for the method shown. For some assays here: In cells and extracts the contact can be indirect. Some entries that bind do so weakly or less than the wild type.

Chains of the proteins cited; added tags and fusions are not shown. Residues count along the entry.
UniProt P16070, residues 21-742: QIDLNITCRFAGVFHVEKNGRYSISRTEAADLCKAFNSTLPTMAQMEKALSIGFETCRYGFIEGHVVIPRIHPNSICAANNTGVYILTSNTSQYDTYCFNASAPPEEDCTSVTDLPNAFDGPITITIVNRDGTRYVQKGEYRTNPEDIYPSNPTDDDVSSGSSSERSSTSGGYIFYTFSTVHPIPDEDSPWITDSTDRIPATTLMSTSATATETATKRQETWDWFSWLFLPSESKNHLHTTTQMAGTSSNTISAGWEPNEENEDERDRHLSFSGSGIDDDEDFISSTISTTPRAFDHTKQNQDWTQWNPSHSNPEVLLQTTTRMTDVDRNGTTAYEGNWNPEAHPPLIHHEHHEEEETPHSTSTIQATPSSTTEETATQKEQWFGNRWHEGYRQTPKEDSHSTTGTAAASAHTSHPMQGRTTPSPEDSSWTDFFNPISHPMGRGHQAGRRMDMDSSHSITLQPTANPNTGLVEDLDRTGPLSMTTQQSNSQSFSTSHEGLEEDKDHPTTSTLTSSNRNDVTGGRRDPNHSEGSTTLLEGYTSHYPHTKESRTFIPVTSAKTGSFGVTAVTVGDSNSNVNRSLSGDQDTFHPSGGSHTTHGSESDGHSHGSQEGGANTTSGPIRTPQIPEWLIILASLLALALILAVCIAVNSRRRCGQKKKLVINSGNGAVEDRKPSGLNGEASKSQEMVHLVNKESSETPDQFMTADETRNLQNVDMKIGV
UniProt P36222, residues 22-383: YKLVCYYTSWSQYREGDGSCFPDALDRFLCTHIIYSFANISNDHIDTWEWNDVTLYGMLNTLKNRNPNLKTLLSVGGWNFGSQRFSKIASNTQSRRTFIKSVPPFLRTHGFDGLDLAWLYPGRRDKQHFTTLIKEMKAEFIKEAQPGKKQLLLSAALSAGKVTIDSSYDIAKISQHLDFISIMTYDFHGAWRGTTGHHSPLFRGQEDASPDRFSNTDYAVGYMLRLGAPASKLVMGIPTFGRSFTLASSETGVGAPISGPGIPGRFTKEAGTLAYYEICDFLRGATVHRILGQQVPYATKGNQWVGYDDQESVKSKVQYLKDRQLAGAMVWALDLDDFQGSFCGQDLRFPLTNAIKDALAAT

Columns and labels:
CD44v6 peptide (human) = target: T1, CD44v6 peptide (human); assay: ELISA; direct ELISA; CD44v3 peptide or CD44v6 peptide coated at 4 μg/ml in PBS; various concentrations of rhCHI3L1 or rhIL-13Rα2 ECD (control BSA) added, 1 h at RT; detected with anti-CHI3L1 or anti-IL-13Rα2 antibody, absorbance at 450 nm; both purified
T1 sequence (peptide): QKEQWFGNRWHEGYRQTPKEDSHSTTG

[1] = target: CD44 (endogenous, gastric cancer cells) (human (endogenous in AGS and MGC803)) (UniProt P16070); assay: co-IP; lysates of AGS and MGC803 cells in IP buffer (20 mM Tris pH 7.5, 150 mM NaCl, 1% TritonX-100, 1 mM EDTA); control IgG or primary antibody with GammaBind Plus Sepharose, 4°C overnight; western blot

| binding (CD44v6 peptide (human)) | binding [1] | Substance |
| --- | --- | --- |
| no binding |  | recombinant human CHI3L1 (from UniProt P36222 22-383) |
|  | binds | CHI3L1 (endogenous, gastric cancer cells) (from UniProt P36222 22-383) |
